PubChem BioAssay AID504774, Drosophila RNAi Screening Center, 2011
In all, the deposit lists about 23,000 reagents; shown is an unselected part of those with a known target gene and a result. 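Values are quantile-normalised luminescence on an arbitrary scale; higher means more cells surviving MMS.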 Further read-outs or replicates are left out here.

- Purpose: 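Knock-downs that shift viability of MMS-exposed cells relative to untreated ones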 (primary screen)
- Cell system: Drosophila Kc167 cells
- Knock-down reagent: long dsRNA against Drosophila genes, about 0.25 µg dsRNA per well
- Timing: about 6 days: 3 days knock-down, then 3 days with or without MMS
- Challenge: methyl methanesulphonate 0.004% (w/v) for 3 days after knock-down
- Measurement: 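Viability in wells given MMS, read as ATP luminescence, normalised by quantiles plate by plate and averaged across replicates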
- Scale: mean viability with MMS: higher = more surviving cells after MMS

mean viability with MMS, by target and reagent
EAChm: DRSC10010 3.52e6
Use1: DRSC10180 3.41e6
CG42319: DRSC06645 3.56e6; DRSC06646 3.64e6; DRSC22426 3.61e6
Cyfip: DRSC15679 3.48e6
cas: DRSC12373 3.60e6
ft: DRSC00819 3.46e6
CG16926: DRSC06637 3.62e6
Vha68-3: DRSC02809 3.40e6
CG7402: DRSC10839 3.50e6
CG33093: DRSC15775 1.91e6
CHOp24: DRSC18310 3.50e6
Alp5: DRSC14269 3.61e6
CG2938: DRSC18243 3.55e6
Unr: DRSC10761 3.64e6
CG2839: DRSC00544 3.48e6
Vajk1: DRSC01882 3.66e6
Rpp14b: DRSC15063 3.41e6
mld: DRSC13681 3.49e6; DRSC14622 3.63e6; DRSC21771 3.28e6
Bub1: DRSC02357 2.89e6; DRSC23158 3.45e6
Cpr49Ac: DRSC07199 3.66e6
Ube4B: DRSC03277 3.52e6
CG6800: DRSC16119 3.56e6
MsR1: DRSC08615 3.49e6
Gbeta76C: DRSC11174 3.53e6
CG4576: DRSC15604 3.50e6
CG6171: DRSC15982 3.43e6
fd96Ca: DRSC16946 3.46e6
bcn92: DRSC18741 3.54e6
CG2616: DRSC15440 3.46e6
CG32026: DRSC08950 3.58e6
5-HT7: DRSC12635 3.51e6
DJ-1alpha: DRSC07005 3.67e6

6 entries already listed, sorted by “mean viability with MMS”, low to high.
target	dsRNA	mean viability with MMS
CG33093	DRSC15775	1.91e6
Vha68-3	DRSC02809	3.40e6
ft	DRSC00819	3.46e6
CG7402	DRSC10839	3.50e6
cas	DRSC12373	3.60e6
CG16926	DRSC06637	3.62e6

The listing continues:
mean viability with MMS, by target and reagent
CG4372: DRSC04466 3.62e6
Muc68Ca: DRSC10312 1.74e6; DRSC10313 3.52e6
CG16704: DRSC00475 3.71e6
CG31636: DRSC02276 3.53e6
Acsf2: DRSC02172 3.44e6
Jabba: DRSC06521 3.38e6
CG13722: DRSC08331 3.71e6; DRSC21616 3.60e6
Stoml2: DRSC04326 3.34e6
CG13014: DRSC19533 3.67e6
AANATL5: DRSC05994 3.57e6
CG2519: DRSC12312 3.53e6
GNBP3: DRSC11170 3.51e6
Nepl5: DRSC03241 3.76e6
DIP-theta: DRSC00885 3.59e6; DRSC02340 3.68e6; DRSC02341 3.79e6
CG5323: DRSC06929 3.70e6
Tsp: DRSC02144 3.46e6; DRSC02145 3.53e6
CG8509: DRSC20109 3.48e6
Rexo5: DRSC10981 3.43e6
CG2691: DRSC19866 3.37e6
IKKepsilon: DRSC03550 3.51e6
Ctns: DRSC15175 3.50e6
RpS3: DRSC16838 2.88e6
Zaf1: DRSC16121 3.76e6
ATP6 (retired record): DRSC21278 3.48e6
Ncoa6: DRSC02353 2.27e6; DRSC23060 3.57e6
